These results are taken from paper PMC5548797.

Assay [1] deals with T1, L4 33K protein of HAdV-C5 (HAdV-C5) (UniProt P24940).
T1 sequence: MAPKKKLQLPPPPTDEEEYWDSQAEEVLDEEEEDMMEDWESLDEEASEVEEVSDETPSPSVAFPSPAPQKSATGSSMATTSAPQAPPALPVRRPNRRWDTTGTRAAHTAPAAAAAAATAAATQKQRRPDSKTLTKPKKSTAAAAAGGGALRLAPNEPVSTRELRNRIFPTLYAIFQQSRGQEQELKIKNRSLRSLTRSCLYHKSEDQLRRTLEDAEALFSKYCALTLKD
The experiment in a line: co-IP; nuclear extracts of HAdV-C5-infected 293 cells immunoprecipitated with anti-IVa2, anti-33K, anti-DBP or anti-hexon antibodies (controls: normal mouse IgG, normal rabbit IgG); immunoblot with anti-E4 34K antibody. Background: Immunoblotting shows a protein as a band on a membrane.

In assay [2] the target is T2, AdV protein IVa2 of HAdV-C5 (HAdV-C5) (UniProt P03271).
T2 sequence: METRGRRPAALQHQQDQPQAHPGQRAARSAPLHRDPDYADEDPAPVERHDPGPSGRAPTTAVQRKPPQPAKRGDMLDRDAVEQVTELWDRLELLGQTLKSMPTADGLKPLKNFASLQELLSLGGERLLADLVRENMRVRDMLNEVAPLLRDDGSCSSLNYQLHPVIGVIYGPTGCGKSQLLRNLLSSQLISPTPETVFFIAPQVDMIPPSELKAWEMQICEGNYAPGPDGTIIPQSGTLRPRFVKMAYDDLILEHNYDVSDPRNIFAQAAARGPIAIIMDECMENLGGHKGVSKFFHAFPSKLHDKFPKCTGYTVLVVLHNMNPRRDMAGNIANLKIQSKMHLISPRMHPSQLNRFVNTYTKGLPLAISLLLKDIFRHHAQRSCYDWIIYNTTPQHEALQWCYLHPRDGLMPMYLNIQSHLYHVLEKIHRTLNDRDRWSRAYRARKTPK
Described as above.

Results are given in words; binding and its absence hold for the method and conditions named. In cells and extracts the contact can be indirect. Binding calls can cover weak binding; strength is not graded here.

As to Adenoviral E4 34K protein of HAdV-C5, the binding result in assay [1] and in assay [2] was “binds” in each case.
